Our source for the log2 fold change values is the supplement of paper PMC10849652.

The chains behind the UniProt entries cited, without tags or fusion partners. Where a name states a change or a piece, a line headed by the entry shows the natural chain unless it says otherwise.
UniProt Q8IVW6: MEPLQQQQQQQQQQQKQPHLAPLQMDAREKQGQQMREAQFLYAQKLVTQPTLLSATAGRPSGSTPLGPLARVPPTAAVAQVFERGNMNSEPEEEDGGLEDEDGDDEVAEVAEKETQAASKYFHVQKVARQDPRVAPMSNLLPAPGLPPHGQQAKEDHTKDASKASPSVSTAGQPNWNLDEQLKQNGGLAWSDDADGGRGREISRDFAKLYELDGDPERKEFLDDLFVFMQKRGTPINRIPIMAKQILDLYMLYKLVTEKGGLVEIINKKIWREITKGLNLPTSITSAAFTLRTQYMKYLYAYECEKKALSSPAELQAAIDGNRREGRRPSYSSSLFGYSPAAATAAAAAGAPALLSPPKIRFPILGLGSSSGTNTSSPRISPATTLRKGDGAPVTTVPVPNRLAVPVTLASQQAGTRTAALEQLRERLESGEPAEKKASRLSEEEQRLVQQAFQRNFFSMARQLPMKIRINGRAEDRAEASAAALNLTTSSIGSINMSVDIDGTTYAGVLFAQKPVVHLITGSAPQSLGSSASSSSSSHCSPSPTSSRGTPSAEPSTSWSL
UniProt Q9UH17: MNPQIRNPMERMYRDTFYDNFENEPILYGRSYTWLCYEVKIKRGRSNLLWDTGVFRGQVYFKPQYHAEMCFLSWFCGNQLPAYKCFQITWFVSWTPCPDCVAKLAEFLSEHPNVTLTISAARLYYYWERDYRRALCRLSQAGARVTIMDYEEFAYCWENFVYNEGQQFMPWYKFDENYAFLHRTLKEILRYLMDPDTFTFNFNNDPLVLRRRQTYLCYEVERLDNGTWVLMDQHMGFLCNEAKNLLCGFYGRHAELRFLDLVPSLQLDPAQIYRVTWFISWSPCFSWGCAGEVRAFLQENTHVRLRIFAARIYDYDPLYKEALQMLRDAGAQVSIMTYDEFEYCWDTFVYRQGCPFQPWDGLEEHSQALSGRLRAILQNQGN
UniProt P36404: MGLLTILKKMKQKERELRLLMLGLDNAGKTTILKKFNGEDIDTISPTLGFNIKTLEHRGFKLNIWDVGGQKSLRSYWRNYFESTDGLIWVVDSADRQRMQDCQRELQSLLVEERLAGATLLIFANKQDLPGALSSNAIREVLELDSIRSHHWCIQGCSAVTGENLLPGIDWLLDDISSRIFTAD
UniProt O60306: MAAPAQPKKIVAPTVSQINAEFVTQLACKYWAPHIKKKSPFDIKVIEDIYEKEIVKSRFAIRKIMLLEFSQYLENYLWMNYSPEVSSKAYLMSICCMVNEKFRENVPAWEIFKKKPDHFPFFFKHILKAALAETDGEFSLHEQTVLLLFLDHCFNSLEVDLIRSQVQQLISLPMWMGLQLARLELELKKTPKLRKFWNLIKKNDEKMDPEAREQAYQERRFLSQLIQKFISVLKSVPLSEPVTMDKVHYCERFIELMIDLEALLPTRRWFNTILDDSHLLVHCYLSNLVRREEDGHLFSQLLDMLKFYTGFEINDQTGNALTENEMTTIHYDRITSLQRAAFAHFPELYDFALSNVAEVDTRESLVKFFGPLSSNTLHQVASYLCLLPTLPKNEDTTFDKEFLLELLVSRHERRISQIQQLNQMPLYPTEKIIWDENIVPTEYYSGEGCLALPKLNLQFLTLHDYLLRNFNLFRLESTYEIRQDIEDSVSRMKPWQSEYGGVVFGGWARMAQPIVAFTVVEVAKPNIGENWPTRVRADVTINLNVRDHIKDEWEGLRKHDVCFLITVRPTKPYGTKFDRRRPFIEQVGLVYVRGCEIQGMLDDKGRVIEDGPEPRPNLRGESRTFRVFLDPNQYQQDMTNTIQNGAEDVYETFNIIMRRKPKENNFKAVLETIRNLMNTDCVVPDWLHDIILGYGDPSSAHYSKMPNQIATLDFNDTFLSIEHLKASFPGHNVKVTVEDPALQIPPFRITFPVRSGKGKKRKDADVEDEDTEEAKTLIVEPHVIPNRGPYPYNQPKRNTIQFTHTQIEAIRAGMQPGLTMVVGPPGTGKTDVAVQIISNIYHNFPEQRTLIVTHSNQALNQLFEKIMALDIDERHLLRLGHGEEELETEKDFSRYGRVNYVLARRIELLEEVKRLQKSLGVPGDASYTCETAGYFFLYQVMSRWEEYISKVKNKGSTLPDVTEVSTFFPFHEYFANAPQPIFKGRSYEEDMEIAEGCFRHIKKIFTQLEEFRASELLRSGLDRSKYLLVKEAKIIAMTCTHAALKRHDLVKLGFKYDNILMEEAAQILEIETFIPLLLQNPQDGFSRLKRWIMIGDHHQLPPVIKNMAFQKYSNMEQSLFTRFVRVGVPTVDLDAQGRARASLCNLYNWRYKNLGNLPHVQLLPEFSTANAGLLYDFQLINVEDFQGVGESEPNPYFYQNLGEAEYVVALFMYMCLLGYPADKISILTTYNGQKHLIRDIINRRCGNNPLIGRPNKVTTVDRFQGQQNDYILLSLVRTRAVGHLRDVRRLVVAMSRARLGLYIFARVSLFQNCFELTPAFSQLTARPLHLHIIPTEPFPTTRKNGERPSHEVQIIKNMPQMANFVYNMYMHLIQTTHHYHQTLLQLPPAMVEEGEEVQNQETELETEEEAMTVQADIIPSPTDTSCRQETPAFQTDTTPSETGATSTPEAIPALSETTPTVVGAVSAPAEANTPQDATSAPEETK
UniProt O15085: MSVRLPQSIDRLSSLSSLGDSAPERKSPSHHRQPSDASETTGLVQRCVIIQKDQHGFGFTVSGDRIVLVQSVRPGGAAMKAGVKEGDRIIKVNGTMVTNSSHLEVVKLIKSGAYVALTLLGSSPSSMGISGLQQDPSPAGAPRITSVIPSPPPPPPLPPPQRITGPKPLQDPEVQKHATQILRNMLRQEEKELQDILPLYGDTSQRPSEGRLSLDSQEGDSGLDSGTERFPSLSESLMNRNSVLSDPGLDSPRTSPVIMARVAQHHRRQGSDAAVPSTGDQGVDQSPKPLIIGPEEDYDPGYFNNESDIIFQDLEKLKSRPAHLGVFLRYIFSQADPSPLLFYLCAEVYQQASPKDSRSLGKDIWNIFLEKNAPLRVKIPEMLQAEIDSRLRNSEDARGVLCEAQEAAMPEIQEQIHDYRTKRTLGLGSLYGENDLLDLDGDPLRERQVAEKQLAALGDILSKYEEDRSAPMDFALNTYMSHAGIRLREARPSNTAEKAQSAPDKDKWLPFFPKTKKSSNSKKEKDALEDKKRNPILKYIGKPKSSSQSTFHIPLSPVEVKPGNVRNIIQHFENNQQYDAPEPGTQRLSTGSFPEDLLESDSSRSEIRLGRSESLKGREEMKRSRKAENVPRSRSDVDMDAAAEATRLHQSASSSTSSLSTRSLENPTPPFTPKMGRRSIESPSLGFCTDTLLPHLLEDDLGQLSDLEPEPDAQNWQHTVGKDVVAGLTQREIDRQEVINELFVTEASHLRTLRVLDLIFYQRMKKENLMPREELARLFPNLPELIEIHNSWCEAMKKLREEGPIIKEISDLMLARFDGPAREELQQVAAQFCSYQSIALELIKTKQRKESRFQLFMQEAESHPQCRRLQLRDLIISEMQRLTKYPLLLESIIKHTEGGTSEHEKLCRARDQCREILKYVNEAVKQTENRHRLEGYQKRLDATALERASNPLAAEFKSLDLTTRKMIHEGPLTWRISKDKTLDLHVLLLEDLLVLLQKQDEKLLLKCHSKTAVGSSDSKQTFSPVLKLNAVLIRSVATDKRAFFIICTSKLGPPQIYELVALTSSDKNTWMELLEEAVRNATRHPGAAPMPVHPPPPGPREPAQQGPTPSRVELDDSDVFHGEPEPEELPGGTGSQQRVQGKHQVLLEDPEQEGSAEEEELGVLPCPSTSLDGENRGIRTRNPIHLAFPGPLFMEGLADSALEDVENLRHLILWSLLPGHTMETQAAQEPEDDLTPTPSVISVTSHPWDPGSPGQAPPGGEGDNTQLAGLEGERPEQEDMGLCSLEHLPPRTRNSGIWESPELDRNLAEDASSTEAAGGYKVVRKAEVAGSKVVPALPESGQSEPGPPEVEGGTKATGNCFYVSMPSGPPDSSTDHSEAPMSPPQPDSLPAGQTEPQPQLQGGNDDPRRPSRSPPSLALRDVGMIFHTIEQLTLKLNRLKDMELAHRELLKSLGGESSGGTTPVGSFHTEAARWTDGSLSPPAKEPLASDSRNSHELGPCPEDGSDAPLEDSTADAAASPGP
UniProt Q15052: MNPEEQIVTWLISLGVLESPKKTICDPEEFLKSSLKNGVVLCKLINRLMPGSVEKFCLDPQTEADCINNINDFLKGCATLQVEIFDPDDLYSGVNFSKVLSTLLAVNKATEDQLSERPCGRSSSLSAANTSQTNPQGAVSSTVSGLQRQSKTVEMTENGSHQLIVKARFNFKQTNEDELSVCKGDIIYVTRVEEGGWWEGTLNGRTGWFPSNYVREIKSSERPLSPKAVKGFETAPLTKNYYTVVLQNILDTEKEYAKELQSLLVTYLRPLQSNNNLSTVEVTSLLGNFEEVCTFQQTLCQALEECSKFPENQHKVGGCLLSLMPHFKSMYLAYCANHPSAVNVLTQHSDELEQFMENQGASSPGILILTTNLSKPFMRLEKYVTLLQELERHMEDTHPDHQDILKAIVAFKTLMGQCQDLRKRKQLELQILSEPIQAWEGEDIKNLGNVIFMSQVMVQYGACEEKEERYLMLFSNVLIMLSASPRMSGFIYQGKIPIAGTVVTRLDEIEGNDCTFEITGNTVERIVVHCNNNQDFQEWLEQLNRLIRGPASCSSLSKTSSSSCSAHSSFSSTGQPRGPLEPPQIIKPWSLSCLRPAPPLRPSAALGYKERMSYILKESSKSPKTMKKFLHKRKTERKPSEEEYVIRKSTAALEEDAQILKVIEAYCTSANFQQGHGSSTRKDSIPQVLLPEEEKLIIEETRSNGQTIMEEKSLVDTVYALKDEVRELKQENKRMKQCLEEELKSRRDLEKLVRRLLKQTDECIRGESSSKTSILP
UniProt Q15041, whole entry, looked up: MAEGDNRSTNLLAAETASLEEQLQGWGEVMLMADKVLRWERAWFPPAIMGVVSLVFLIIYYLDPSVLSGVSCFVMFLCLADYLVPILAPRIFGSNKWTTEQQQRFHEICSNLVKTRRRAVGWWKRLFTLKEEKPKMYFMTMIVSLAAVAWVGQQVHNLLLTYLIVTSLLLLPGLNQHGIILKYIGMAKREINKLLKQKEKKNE
UniProt O15013: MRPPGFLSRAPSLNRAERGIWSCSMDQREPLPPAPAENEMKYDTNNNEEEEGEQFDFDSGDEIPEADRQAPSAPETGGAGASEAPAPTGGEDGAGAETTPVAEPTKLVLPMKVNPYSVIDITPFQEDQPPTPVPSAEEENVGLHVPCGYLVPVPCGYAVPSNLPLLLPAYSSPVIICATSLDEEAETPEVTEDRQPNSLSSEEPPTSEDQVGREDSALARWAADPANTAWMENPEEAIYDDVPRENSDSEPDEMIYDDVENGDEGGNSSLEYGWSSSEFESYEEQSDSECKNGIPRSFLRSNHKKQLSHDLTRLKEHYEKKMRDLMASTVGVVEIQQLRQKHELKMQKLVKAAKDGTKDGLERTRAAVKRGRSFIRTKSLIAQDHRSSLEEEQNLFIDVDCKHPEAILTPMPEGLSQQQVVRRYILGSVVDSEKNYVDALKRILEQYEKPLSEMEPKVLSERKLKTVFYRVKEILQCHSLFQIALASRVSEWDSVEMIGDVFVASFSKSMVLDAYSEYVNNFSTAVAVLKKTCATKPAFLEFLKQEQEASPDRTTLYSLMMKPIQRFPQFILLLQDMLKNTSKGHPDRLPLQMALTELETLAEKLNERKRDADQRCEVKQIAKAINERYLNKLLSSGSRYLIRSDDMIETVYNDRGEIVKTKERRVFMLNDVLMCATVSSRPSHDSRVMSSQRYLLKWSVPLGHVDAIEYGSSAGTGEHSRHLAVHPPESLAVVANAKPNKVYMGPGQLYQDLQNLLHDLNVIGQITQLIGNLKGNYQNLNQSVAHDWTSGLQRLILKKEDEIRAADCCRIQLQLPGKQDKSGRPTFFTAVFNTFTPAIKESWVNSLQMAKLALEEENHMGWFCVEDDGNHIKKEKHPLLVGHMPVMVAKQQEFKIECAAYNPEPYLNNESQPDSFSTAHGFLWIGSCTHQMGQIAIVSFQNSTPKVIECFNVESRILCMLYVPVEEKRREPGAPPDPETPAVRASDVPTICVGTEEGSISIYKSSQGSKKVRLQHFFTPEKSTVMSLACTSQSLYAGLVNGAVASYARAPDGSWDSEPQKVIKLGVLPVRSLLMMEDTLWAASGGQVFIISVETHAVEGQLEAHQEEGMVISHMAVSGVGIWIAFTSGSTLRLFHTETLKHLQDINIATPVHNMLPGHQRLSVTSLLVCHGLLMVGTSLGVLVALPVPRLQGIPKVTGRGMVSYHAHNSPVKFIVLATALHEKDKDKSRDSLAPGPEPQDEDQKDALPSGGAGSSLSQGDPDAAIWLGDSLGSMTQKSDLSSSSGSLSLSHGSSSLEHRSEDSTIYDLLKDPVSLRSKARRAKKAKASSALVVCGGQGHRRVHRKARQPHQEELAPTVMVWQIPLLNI

The list shows a part of the results.

Test in all cases: log2 fold change, soluble protein after heating vs DMSO (PISA); higher = thermal stabilisation; K562 lysate, 10 uM; active = over 0.2 and 3.5 SD of the protein, either way, in both replicates (recomputed)
Compound in experiment [1]: NCC(=O)Nc1ccc(-n2nc(C(F)(F)F)cc2-c2ccc3c(ccc4ccccc43)c2)cc1
In short, it runs like this: (§1)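 Following dounce homogenisation of K562 pellets in PBS pH 7.4 with 1 mM MgCl2, crude extract at 1 mg/mL protein was incubated for 30 min with 10 μM compound. Aliquots were then heated for 3 min over 48°C-58°C and pooled, NP-40 was added to 0.5% at 4°C, and soluble protein was recovered as the supernatant at 21,000xg for 90 min. Channel-sum-equalised TMTpro 16plex LC-MS/MS quantified this protein. Each value, from duplicates, is a log-two fold change in thermal stability relative to solvent controls.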

Compound in another experiment: O=C(CCCCCCC(=O)Nc1ccccc1)NO [vorinostat]
Put shortly: as §1

Compound in a further experiment: O=C(O)c1ccc2c(c1)nc(Nc1cccc(Cl)c1)c1ccncc12 [silmitasertib]
In short, it runs like this:
as §1

Compound in experiment [2]: O=C1NC(=O)C(c2cnc3ccccn23)=C1c1cn2c3c(cc(F)cc13)CN(C(=O)N1CCCCC1)CC2
In short, it runs like this:
as §1

Compound in the next experiment: c1cn2cc(-c3ccc4cn[nH]c4c3)nc(Nc3ccc(N4CCOCC4)cc3)c2n1 [entospletinib]
In short, it runs like this:
as §1

As to ARID3B (UniProt Q8IVW6), the log2 fold change in experiment [1] was inactive: -0.021; with vorinostat, inactive: -0.162; with silmitasertib, inactive: 0.011; in experiment [2] it was inactive: 0.002; in the experiment with entospletinib, inactive: -0.176.

On to APOBEC3B (UniProt Q9UH17), for which the log2 fold change was inactive: -0.079 in experiment [1]; inactive: -0.006 with vorinostat; inactive: -0.207 with silmitasertib; inactive: 0.15 in experiment [2]; inactive: 0.042 in the experiment with entospletinib.

As to ARHGAP1 (UniProt Q07960), the log2 fold change was inactive: 0.03 in experiment [1]; inactive: 0.149 in the experiment with vorinostat; inactive: -0.029 with silmitasertib; inactive: -0.017 in experiment [2]; inactive: 0.028 in the experiment with entospletinib.

For the target APOA1 (UniProt P02647), the log2 fold change in experiment [1] is inactive: -0.02; with vorinostat, inactive: 0.002; in the experiment with silmitasertib, inactive: -0.082; in experiment [2] it was inactive: -0.155; with entospletinib, inactive: 0.094.

Consider ARL2 (UniProt P36404), for which the log2 fold change was inactive: 0 in experiment [1]; inactive: -0.113 in the experiment with vorinostat; inactive: 0.002 in the experiment with silmitasertib; inactive: -0.01 in experiment [2]; inactive: -0.045 with entospletinib.

For the target ARMC1 (UniProt Q9NVT9), the log2 fold change in experiment [1] was inactive: 0.036; with vorinostat, inactive: -0.139; in the experiment with silmitasertib, inactive: 0.017; in experiment [2] it was inactive: 0.007; in the experiment with entospletinib, inactive: -0.047.

Regarding APEX1 (UniProt P27695), the log2 fold change is inactive: 0.007 in experiment [1]; inactive: -0.15 with vorinostat; inactive: 0.026 with silmitasertib; inactive: -0.001 in experiment [2]; inactive: -0.002 in the experiment with entospletinib.

Turning to ARF6 (UniProt P62330), the log2 fold change in experiment [1] was inactive: 0.034; with vorinostat it was inactive: -0.005; with silmitasertib, inactive: 0.079; in experiment [2], inactive: -0.032; with entospletinib it was inactive: -0.022.

With APPL2 isoform 3 (UniProt Q8NEU8), the log2 fold change is inactive: -0.105 in experiment [1]; inactive: -0.078 with vorinostat; inactive: 0.036 with silmitasertib; inactive: -0.058 in experiment [2]; inactive: -0.007 with entospletinib.

AQR (UniProt O60306): the log2 fold change in experiment [1] is inactive: 0.039; with vorinostat, inactive: -0.125; in the experiment with silmitasertib, inactive: 0.037; in experiment [2], inactive: -0.004; with entospletinib it was inactive: 0.022.

As to ARHGEF11 isoform 2 (UniProt O15085), the log2 fold change in experiment [1] was inactive: 0.026; in the experiment with vorinostat, inactive: -0.11; in the experiment with silmitasertib it was inactive: 0.044; in experiment [2] it was inactive: 0.005; with entospletinib, inactive: -0.042.

For the target ARHGAP21 (UniProt Q5T5U3), the log2 fold change in experiment [1] was inactive: 0.021; with vorinostat it was active: -0.364; in the experiment with silmitasertib, inactive: 0.014; in experiment [2], inactive: -0.041; with entospletinib it was inactive: -0.104.

As for ARHGEF6 (UniProt Q15052), the log2 fold change in experiment [1] was inactive: 0.018; with vorinostat it was inactive: -0.268; with silmitasertib, inactive: -0.025; in experiment [2], inactive: 0.001; with entospletinib it was inactive: 0.052.

ARL6IP1 (UniProt Q15041): the log2 fold change in experiment [1] is inactive: -0.035; in the experiment with vorinostat, inactive: 0.044; with silmitasertib, inactive: 0.002; in experiment [2] it was inactive: -0.047; in the experiment with entospletinib it was inactive: 0.018.

Take ARHGEF10 (UniProt O15013): the log2 fold change was inactive: 0.009 in experiment [1]; inactive: -0.291 with vorinostat; inactive: 0.021 in the experiment with silmitasertib; inactive: 0.032 in experiment [2]; inactive: 0.08 with entospletinib.

Regarding ARID4B (UniProt Q4LE39), the log2 fold change was inactive: 0.019 in experiment [1]; inactive: -0.015 with vorinostat; inactive: -0.019 with silmitasertib; inactive: -0.015 in experiment [2]; inactive: -0.055 in the experiment with entospletinib.

ARCN1 (UniProt P48444): the log2 fold change is inactive: -0.003 in experiment [1]; inactive: 0.074 with vorinostat; inactive: 0.005 in the experiment with silmitasertib; inactive: -0.019 in experiment [2]; inactive: 0.003 with entospletinib.

Turning to ARPC3 (UniProt O15145), the log2 fold change is inactive: 0 in experiment [1]; inactive: 0.129 with vorinostat; inactive: -0.017 with silmitasertib; inactive: -0.014 in experiment [2]; inactive: 0.013 with entospletinib.

APLP2 (UniProt Q06481): the log2 fold change was inactive: -0.01 in experiment [1]; inactive: 0.081 with vorinostat; inactive: -0.001 with silmitasertib; inactive: -0.015 in experiment [2]; inactive: 0.017 with entospletinib.

As for ARF5 (UniProt P84085), the log2 fold change is inactive: -0.004 in experiment [1]; inactive: -0.006 with vorinostat; inactive: -0.034 in the experiment with silmitasertib; inactive: -0.095 in experiment [2]; inactive: 0.015 in the experiment with entospletinib.

With ASAH1 isoform 2 (UniProt Q13510), the log2 fold change in experiment [1] is inactive: -0.036; with vorinostat, inactive: -0.111; with silmitasertib it was inactive: -0.03; in experiment [2] it was inactive: -0.043; with entospletinib, inactive: 0.051.

Turning to ARL4A (UniProt P40617), the log2 fold change with entospletinib was inactive: -0.042.
